The results in this text go back to PMC6884552, “Glycogen branching enzyme controls cellular iron homeostasis via Iron Regulatory Protein 1 and mitoNEET” (Nature Communications, 2019).

Results are given in words; binding and its absence hold for the method and conditions named. In cells and extracts the contact can be indirect. A yes stands for co-enrichment or nearness to the bait. Other partners may have been found. For some assays here: A no says only that the protein was not detected with the bait. Sequences can lack the tags named with a protein.

The target of experiment [1] is T1, Drosophila IRP1A in larvae (endogenously Flag-tagged IRP1A^3F as bait; endogenous IRP1A as prey) (Drosophila (endogenous in larvae)) (UniProt Q9VCV4).
T1 sequence: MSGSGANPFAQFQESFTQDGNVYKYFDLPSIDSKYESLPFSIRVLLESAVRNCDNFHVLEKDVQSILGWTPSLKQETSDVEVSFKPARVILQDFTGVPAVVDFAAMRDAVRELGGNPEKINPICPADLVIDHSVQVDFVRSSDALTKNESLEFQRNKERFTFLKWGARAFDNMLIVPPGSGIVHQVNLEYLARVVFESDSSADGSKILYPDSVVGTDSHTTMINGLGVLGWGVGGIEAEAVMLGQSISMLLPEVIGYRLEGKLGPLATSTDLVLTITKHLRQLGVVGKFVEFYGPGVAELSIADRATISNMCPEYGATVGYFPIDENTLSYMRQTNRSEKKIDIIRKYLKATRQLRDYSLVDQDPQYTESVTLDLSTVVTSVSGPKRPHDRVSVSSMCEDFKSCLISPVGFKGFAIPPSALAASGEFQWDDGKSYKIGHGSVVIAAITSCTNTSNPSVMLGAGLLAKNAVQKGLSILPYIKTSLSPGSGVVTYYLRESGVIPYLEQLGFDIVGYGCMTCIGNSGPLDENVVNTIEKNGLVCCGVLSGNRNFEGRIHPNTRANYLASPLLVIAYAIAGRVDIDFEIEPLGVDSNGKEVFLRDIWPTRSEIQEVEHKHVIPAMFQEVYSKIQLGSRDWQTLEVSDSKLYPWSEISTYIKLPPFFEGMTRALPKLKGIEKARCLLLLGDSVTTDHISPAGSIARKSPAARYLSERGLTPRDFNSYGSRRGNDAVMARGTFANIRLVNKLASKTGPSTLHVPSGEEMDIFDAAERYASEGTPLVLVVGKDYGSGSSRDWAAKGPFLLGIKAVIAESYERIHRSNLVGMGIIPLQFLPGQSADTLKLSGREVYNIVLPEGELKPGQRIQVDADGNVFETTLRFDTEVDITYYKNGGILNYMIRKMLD
Put plainly: affinity purification with mass spectrometry; whole-body L3 larvae with Flag-tagged knock-in alleles (AGBE^FCF, IRP1A^3F, IRP1B^3F) on regular food (IRP1A^3F also after one or two generations on BPS food); 0.2% formaldehyde cross-linking in vivo; anti-Flag M2 affinity gel, 2 h, 4 °C; proteins found in untagged controls removed.

For experiment [2], the target named is T1, Drosophila IRP1A in larvae (endogenously Flag-tagged IRP1A^3F as bait; endogenous IRP1A as prey) (Drosophila (endogenous in larvae)). As to the kind of experiment: affinity purification with mass spectrometry; prothoracic gland cells purified from dissected brain-ring gland complexes (CD8.Venus, anti-CD8 beads); 0.2% formaldehyde cross-linking; anti-Flag immunoprecipitation as for whole body.

Experiment [3] concerns the target T2, Drosophila AGBE in larvae (endogenously Flag-tagged AGBE^FCF as bait; endogenous AGBE as prey) (Drosophila (endogenous in larvae)) (UniProt A1Z992).
T2 sequence: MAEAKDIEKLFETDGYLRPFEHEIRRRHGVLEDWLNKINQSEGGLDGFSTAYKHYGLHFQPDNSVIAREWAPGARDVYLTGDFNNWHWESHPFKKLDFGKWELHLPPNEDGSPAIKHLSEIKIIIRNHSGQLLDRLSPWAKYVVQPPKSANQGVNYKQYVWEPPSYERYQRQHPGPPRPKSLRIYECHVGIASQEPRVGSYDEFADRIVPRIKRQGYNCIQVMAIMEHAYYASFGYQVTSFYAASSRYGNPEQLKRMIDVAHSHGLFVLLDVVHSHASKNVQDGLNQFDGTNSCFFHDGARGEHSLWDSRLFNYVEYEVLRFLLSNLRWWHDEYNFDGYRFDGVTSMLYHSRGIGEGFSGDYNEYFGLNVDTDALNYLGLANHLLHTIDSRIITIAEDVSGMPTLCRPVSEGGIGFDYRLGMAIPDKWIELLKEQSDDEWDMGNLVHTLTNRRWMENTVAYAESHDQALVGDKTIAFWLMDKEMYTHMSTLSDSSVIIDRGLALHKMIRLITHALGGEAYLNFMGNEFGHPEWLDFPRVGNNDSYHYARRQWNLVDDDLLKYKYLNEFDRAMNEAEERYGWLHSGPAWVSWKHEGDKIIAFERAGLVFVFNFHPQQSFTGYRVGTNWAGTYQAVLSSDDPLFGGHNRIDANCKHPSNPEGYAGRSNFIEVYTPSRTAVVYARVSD
Put plainly: affinity purification with mass spectrometry; whole-body L3 larvae with Flag-tagged knock-in alleles (AGBE^FCF, IRP1A^3F, IRP1B^3F) on regular food (IRP1A^3F also after one or two generations on BPS food); 0.2% formaldehyde cross-linking in vivo; anti-Flag M2 affinity gel, 2 h, 4 °C; proteins found in untagged controls removed.

Experiment [4] concerns the target T1, Drosophila IRP1A in larvae (endogenously Flag-tagged IRP1A^3F as bait; endogenous IRP1A as prey) (Drosophila (endogenous in larvae)). As to the kind of experiment: condition: only larvae reared for two generations on BPS (iron-depleted) food; affinity purification with mass spectrometry; whole-body larvae of IRP1A^3F flies reared for two generations (G2) on BPS-supplemented (iron-depleted) food; anti-Flag immunoprecipitation.

B1: Drosophila ferritin Fer1HCH, endogenous in larvae (protein, UniProt Q7KRU8 20-205)
chain: DFKCSLAVPEITKDWVDMKDACIKGMRNQIQEEINASYQYLAMGAYFSRDTVNRPGFAEHFFKAAKEEREHGSKLVEYLSMRGQLTEGVSDLINVPTVAKQEWTDGAAALSDALDLEIKVTKSIRKLIQTCENKPYNHYHLVDYLTGVYLEEQLHGQRELAGKLTTLKKMMDTNGELGEFLFDKTL
Consider B1, for which the binding result in experiment [1] and in experiment [2] was “binds” each time.

B2: Drosophila IRP1A in larvae (endogenously Flag-tagged IRP1A^3F as bait; endogenous IRP1A as prey) (protein, UniProt Q9VCV4 1-902)
chain: T1 sequence
On to B2, for which the binding result in experiment [3] is recorded as “binds”.

B3: Drosophila ferritin Fer2LCH, endogenous in larvae (protein, UniProt Q9VA83 20-227)
chain: KDDEYCQNTVITACSTSAFSANSICNARFAGIDHIEPEIQSYINANLAKSYDYLLLATHFNSYQKNRPGFQKLYQGLSDRSFEDSIALIKQVTRRGGIVDFNTRHESSGSVSTKRGTLEVDELHSLALALDTEKQLATGATHVHSRATHATDAERDPELAHYFEENFLGKQAESVRKLSGYANDLAKLMKVPDPSLSVYLFDEYLQKQ
As for B3, the binding result in experiment [1] and in experiment [2] was “binds” each time.

B4: Drosophila IRP1B in larvae (endogenously Flag-tagged IRP1B^3F as bait; endogenous IRP1B as prey) (protein, UniProt Q9VGZ3 1-899)
chain: MSGANPFAQFEKTFSQAGTTYKYFDLASIDSKYDQLPYSIRVLLESAVRNCDNFHILEKDVQSILGWSPALKQGSNDVEVSFKPARVILQDFTGVPAVVDFAAMRDAVLDLGGDPEKINPICPADLVIDHSVQVDFARAPDALAKNQSLEFERNKERFTFLKWGAKAFNNMLIVPPGSGIVHQVNLEYLARVVFENDATDGSKILYPDSVVGTDSHTTMINGLGVLGWGVGGIEAEAVMLGQSISMLLPEVIGYKLEGKLSPLVTSTDLVLTITKHLRQLGVVGKFVEFYGPGVAELSIADRATISNMCPEYGATVGYFPIDENTLGYMKQTNRSEKKIDIIRQYLKATQQLRNYADAAQDPKFTQSITLDLSTVVTSVSGPKRPHDRVSVSDMPEDFKSCLSSPVGFKGFAIAPEAQSAFGEFQWDDGKTYKLHHGSVVIAAITSCTNTSNPSVMLGAGLLAKKAVEKGLSILPYIKTSLSPGSGVVTYYLKESGVIPYLEKLGFDIVGYGCMTCIGNSGPLEENVVNTIEKNGLVCAGVLSGNRNFEGRIHPNTRANYLASPLLVIAYAIAGRVDIDFEKEPLGVDANGKNVFLQDIWPTRSEIQEVENKHVIPAMFQEVYSKIELGSQDWQTLQVSEGKLFSWSADSTYIKRPPFFEGMTRDLPKLQSIQKARCLLFLGDSVTTDHISPAGSIARTSPAARFLSERNITPRDFNSYGSRRGNDAIMSRGTFANIRLVNKLVEKTGPRTVHIPSQEELDIFDAAERYREEGTPLVLVVGKDYGSGSSRDWAAKGPFLLGVKAVIAESYERIHRSNLVGMGIIPLQFLPGQSAETLNLTGREVYNIALPESGLKPGQKIQVEADGTVFETILRFDTEVDITYYKNGGILNYMIRKMLS
As for B4, the binding result in experiment [1] is “binds”; in experiment [3] it was “binds”; in experiment [4], “no binding”; in experiment [2], “binds”.

B5: Drosophila glycogen synthase (GlyS), endogenous in larvae (enzyme, UniProt Q9VFC8 1-709)
chain: MRRQQSYRFEDNESTSYALRMNRRFSRVESGADLKDYFDRGDIASRENRWNFEVAWEVANKVGGIYTVIRSKAYVSTEEMGEQLCMMGPYKEHCARTEMEEMEFPRGNPLLDAVNSLRSRGYKIHTGRWLVDGNPQLILFDIGSAAWKLDQFKSEMWEKCHIGIPHLDIETNDAIILGFMIAEFLEEFRNFAVTYSQNNELSAPRIVAHFHEWQAGVGLIVLRTRLVEIATVFTTHATLLGRYLCAGNTDFYNNLDKFAVDEEAGKRQIYHRYCLERGATHLAHVFTTVSEITGYEAEHLLKRKPDIITPNGLNVKKFSAIHEFQNLHAVAKEKINEFVRGHFYGHIDFDLDKTLYFFIAGRYEFGNKGADIFIEALARLNAMLKHEKPDTTVVAFLIFPTKTNNFNVDSLRGHAVIKQLRDTINNVQQAVGKRMFDTCLQGNIPNADDLLQKDDLVKIKRCMFAMQRDSMPPVTTHNVADDWNDPVLSSIRRCHLFNSRHDRVKMVFHPEFLTSTNPLFGIDYEEFVRGCHLGVFPSYYEPWGYTPAECTVMGIPSVTTNLSGFGCFMEEHISDPKSYGIYIVDRRYIGLENSVQQLSSFMMEFSRLNRRQRIIQRNRTERLSDLLDWRTLGIYYRQARVKALQAVYPDYVDELSLYGSKNNLIFSRPHSEPPSPTSSRHTTPAPSVHGSDDEDSVDEETELKELGIK
Regarding B5, the binding result in experiment [1] and in experiment [3] was “binds” in each case.
